Reference: the supplement of paper PMC6078165
The reference is the same well before dosing, and untreated signal decays as well.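 Labels refer to human fibroblasts, largely primary: uterine (C12385, HUF), lung (H6013), bone (Hs27A), adrenal (HADF), skin (WS1), plus mammary HMF and breast cancer-associated Hs343T. Cancer lines are basal-like or mesenchymal-like triple-negative breast cancer. The paper counts as hits responses shifting over 3x the replicate standard deviation. The tissue of the other fibroblasts is not given here.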

System: BT20
Assay: relative JC-1 red fluorescence (viability) vs pre-drug, coculture with fibroblast (fraction); higher = more viable cancer cells
Method: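 JC-1 labelled TNBC cells cocultured 1:1 (1,500 cells each) with CellTrace Violet stained primary or stromal fibroblasts in 384-well plates in FluoroBrite medium, treated with one of 42 anticancer drugs at 0.1, 1, 10 or 100 uM. JC-1 red fluorescence (mitochondrial integrity in cancer cells only) was read by plate reader every 8 h for 72 h. Values are normalised to each well's pre-drug value. The stock of one drug was tenfold lower, so its dose labels may be too high.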

CS(=O)(=O)CCNCc1ccc(-c2ccc3ncnc(Nc4ccc(OCc5cccc(F)c5)c(Cl)c4)c3c2)o1 [Lapatinib]
relative JC-1 red fluorescence
Settings | 8 h | 16 h | 24 h | 32 h | 40 h | 48 h | 56 h | 64 h | 72 h
0.1 µM, coculture fibroblast: C12385 | 0.916 | 0.857 | 0.787 | 0.725 | 0.683 | 0.661 | 0.639 | 0.619 | 0.608
0.1 µM, coculture fibroblast: H6013 | 0.896 | 0.94 | 0.899 | 0.913 | 0.884 | 0.869 | 0.854 | 0.826 | 0.791
0.1 µM, coculture fibroblast: H6019 | 0.854 | 0.804 | 0.781 | 0.736 | 0.703 | 0.693 | 0.66 | 0.633 | 0.628
0.1 µM, coculture fibroblast: H6076 | 0.813 | 0.93 | 0.8732 | 0.8525 | 0.816 | 0.799 | 0.788 | 0.79 | 0.763
0.1 µM, coculture fibroblast: H6231 | 0.84 | 0.896 | 0.88 | 0.8138 | 0.74 | 0.679 | 0.624 | 0.595 | 0.562
0.1 µM, coculture fibroblast: HADF | 0.822 | 0.973 | 0.846 | 0.863 | 0.819 | 0.773 | 0.746 | 0.716 | 0.674
0.1 µM, coculture fibroblast: HCFa | 0.9474 | 0.9199 | 0.9318 | 0.913 | 0.904 | 0.901 | 0.896 | 0.881 | 0.858
0.1 µM, coculture fibroblast: HCPF | 0.809 | 0.869 | 0.918 | 0.864 | 0.81 | 0.755 | 0.711 | 0.701 | 0.662
0.1 µM, coculture fibroblast: HHSteC | 0.9579 | 0.8939 | 0.8642 | 0.802 | 0.752 | 0.717 | 0.7 | 0.68 | 0.651
0.1 µM, coculture fibroblast: HMF | 0.747 | 0.938 | 0.829 | 0.777 | 0.7351 | 0.692 | 0.658 | 0.631 | 0.602
0.1 µM, coculture fibroblast: HPFa | 0.97137 | 0.955 | 0.864 | 0.897 | 0.882 | 0.846 | 0.819 | 0.795 | 0.746
0.1 µM, coculture fibroblast: HUF | 0.95 | 0.887 | 0.873 | 0.822 | 0.797 | 0.77 | 0.773 | 0.766 | 0.758
0.1 µM, coculture fibroblast: Hs5 | 0.802 | 0.861 | 0.9318 | 0.8871 | 0.8487 | 0.825 | 0.801 | 0.772 | 0.7423
0.1 µM, coculture fibroblast: Hs27A | 0.7665 | 0.854 | 0.91 | 0.931 | 0.876 | 0.856 | 0.825 | 0.787 | 0.738
0.1 µM, coculture fibroblast: Hs343T | 0.872 | 0.8928 | 0.8131 | 0.766 | 0.72 | 0.686 | 0.645 | 0.634 | 0.6
0.1 µM, coculture fibroblast: WS1 | 0.8669 | 0.7966 | 0.743 | 0.682 | 0.631 | 0.606 | 0.58 | 0.554 | 0.534
1 µM, coculture fibroblast: C12385 | 0.9384 | 0.8459 | 0.80444 | 0.736 | 0.6783 | 0.6442 | 0.618 | 0.597 | 0.583
1 µM, coculture fibroblast: H6013 | 0.949 | 0.914 | 0.89 | 0.847 | 0.811 | 0.804 | 0.796 | 0.776 | 0.755
1 µM, coculture fibroblast: H6019 | 0.9182 | 0.902 | 0.889 | 0.83 | 0.781 | 0.775 | 0.764 | 0.746 | 0.721
1 µM, coculture fibroblast: H6076 | 0.864 | 0.9076 | 0.828 | 0.793 | 0.757 | 0.734 | 0.722 | 0.72 | 0.701
1 µM, coculture fibroblast: H6231 | 0.74 | 0.925 | 0.842 | 0.778 | 0.734 | 0.687 | 0.652 | 0.619 | 0.587
1 µM, coculture fibroblast: HADF | 0.94 | 0.963 | 0.925 | 0.906 | 0.899 | 0.877 | 0.873 | 0.864 | 0.845
1 µM, coculture fibroblast: HCFa | 0.974 | 0.911 | 0.807 | 0.75 | 0.726 | 0.821 | 0.691 | 0.722 | 0.764
1 µM, coculture fibroblast: HCPF | 0.74 | 0.97 | 0.879 | 0.816 | 0.7607 | 0.69 | 0.6544 | 0.6298 | 0.6039
1 µM, coculture fibroblast: HHSteC | 0.9135 | 0.885 | 0.9006 | 0.826 | 0.8 | 0.775 | 0.761 | 0.746 | 0.722
1 µM, coculture fibroblast: HMF | 0.849 | 0.894 | 0.806 | 0.744 | 0.703 | 0.654 | 0.621 | 0.603 | 0.576
1 µM, coculture fibroblast: HPFa | 0.833 | 0.812 | 0.81107 | 0.727 | 0.752 | 0.726 | 0.767 | 0.764 | 0.659
1 µM, coculture fibroblast: HUF | 0.945 | 0.89 | 0.8515 | 0.765 | 0.724 | 0.681 | 0.662 | 0.649 | 0.631
1 µM, coculture fibroblast: Hs5 | 0.837 | 0.903 | 0.823 | 0.771 | 0.728 | 0.687 | 0.6445 | 0.6185 | 0.5882
1 µM, coculture fibroblast: Hs27A | 0.771 | 0.77 | 0.966 | 0.947 | 0.902 | 0.8704 | 0.8536 | 0.8267 | 0.7755
1 µM, coculture fibroblast: Hs343T | 0.839 | 0.888 | 0.82 | 0.761 | 0.722 | 0.682 | 0.656 | 0.637 | 0.611
1 µM, coculture fibroblast: WS1 | 0.886 | 0.814 | 0.795 | 0.726 | 0.677 | 0.66 | 0.631 | 0.607 | 0.599
10 µM, coculture fibroblast: C12385 | 0.8847 | 0.804 | 0.736 | 0.725 | 0.7015 | 0.6985 | 0.699 | 0.702 | 0.698
10 µM, coculture fibroblast: H6013 | 0.944 | 0.929 | 0.86 | 0.88 | 0.84 | 0.823 | 0.825 | 0.811 | 0.81
10 µM, coculture fibroblast: H6019 | 0.8909 | 0.851 | 0.8422 | 0.79819 | 0.796 | 0.796 | 0.792 | 0.773 | 0.762
10 µM, coculture fibroblast: H6076 | 0.823 | 0.941 | 0.91 | 0.873 | 0.869 | 0.85 | 0.802 | 0.82 | 0.796
10 µM, coculture fibroblast: H6231 | 0.757 | 0.898 | 0.788 | 0.731 | 0.7 | 0.668 | 0.657 | 0.641 | 0.636
10 µM, coculture fibroblast: HADF | 0.793 | 0.981 | 0.855 | 0.883 | 0.865 | 0.837 | 0.82 | 0.805 | 0.782
10 µM, coculture fibroblast: HCFa | 0.857 | 0.927 | 0.89 | 0.918 | 0.932 | 0.928 | 0.925 | 0.935 | 0.905
10 µM, coculture fibroblast: HCPF | 0.769 | 0.887 | 0.912 | 0.843 | 0.788 | 0.751 | 0.698 | 0.679 | 0.643
10 µM, coculture fibroblast: HHSteC | 0.959 | 0.9 | 0.859 | 0.821 | 0.782 | 0.77 | 0.761 | 0.774 | 0.758
10 µM, coculture fibroblast: HMF | 0.833 | 0.99 | 0.895 | 0.828 | 0.77 | 0.713 | 0.679 | 0.641 | 0.62
10 µM, coculture fibroblast: HPFa | 0.901 | 0.936 | 0.907 | 0.865 | 0.863 | 0.855 | 0.8616 | 0.868 | 0.869
10 µM, coculture fibroblast: HUF | 0.924 | 0.831 | 0.776 | 0.715 | 0.696 | 0.676 | 0.679 | 0.699 | 0.695
10 µM, coculture fibroblast: Hs5 | 0.721 | 0.94 | 0.87 | 0.829 | 0.806 | 0.793 | 0.779 | 0.761 | 0.748
10 µM, coculture fibroblast: Hs27A | 0.807 | 0.807 | 0.894 | 0.845 | 0.808 | 0.852 | 0.901 | 0.933 | 0.898
10 µM, coculture fibroblast: Hs343T | 0.827 | 0.923 | 0.829 | 0.786 | 0.7314 | 0.69227 | 0.656 | 0.641 | 0.615
10 µM, coculture fibroblast: WS1 | 0.86 | 0.832 | 0.83 | 0.851 | 0.848 | 0.849 | 0.847 | 0.83 | 0.813
100 µM, coculture fibroblast: C12385 | 0.876 | 0.81338 | 0.7931 | 0.7363 | 0.69 | 0.6598 | 0.6318 | 0.612 | 0.589
100 µM, coculture fibroblast: H6013 | 0.892 | 0.862 | 0.9674 | 0.96074 | 0.922 | 0.918 | 0.915 | 0.876 | 0.848
100 µM, coculture fibroblast: H6019 | 0.8777 | 0.809 | 0.777 | 0.708 | 0.668 | 0.64515 | 0.61781 | 0.5966 | 0.58323
100 µM, coculture fibroblast: H6076 | 0.9921 | 0.912 | 0.8531 | 0.8415 | 0.8074 | 0.7919 | 0.792 | 0.786 | 0.778
100 µM, coculture fibroblast: H6231 | 0.725 | 0.941 | 0.844 | 0.786 | 0.725 | 0.679 | 0.649 | 0.616 | 0.583
100 µM, coculture fibroblast: HADF | 0.842 | 0.864 | 0.779 | 0.858 | 0.818 | 0.746 | 0.817 | 0.747 | 0.694
100 µM, coculture fibroblast: HCFa | 0.942 | 0.956 | 0.964 | 0.926 | 0.906 | 0.8958 | 0.883 | 0.87 | 0.829
100 µM, coculture fibroblast: HCPF | 0.751 | 0.926 | 0.889 | 0.864 | 0.835 | 0.759 | 0.807 | 0.736 | 0.711
100 µM, coculture fibroblast: HHSteC | 0.9192 | 0.865 | 0.833 | 0.769 | 0.7275 | 0.702 | 0.6839 | 0.65 | 0.631
100 µM, coculture fibroblast: HMF | 0.881 | 0.933 | 0.8485 | 0.796 | 0.7635 | 0.7151 | 0.6833 | 0.6473 | 0.612
100 µM, coculture fibroblast: HPFa | 0.972 | 0.913 | 0.92 | 0.853 | 0.842 | 0.803 | 0.783 | 0.753 | 0.711
100 µM, coculture fibroblast: HUF | 0.9107 | 0.818 | 0.777 | 0.7 | 0.655 | 0.617 | 0.605 | 0.591 | 0.579
100 µM, coculture fibroblast: Hs5 | 0.825 | 0.905 | 0.825 | 0.763 | 0.725 | 0.692 | 0.652 | 0.631 | 0.602
100 µM, coculture fibroblast: Hs27A | 0.719 | 0.801 | 0.78 | 0.873 | 0.727 | 0.873 | 0.858 | 0.813 | 0.779
100 µM, coculture fibroblast: Hs343T | 0.802 | 0.909 | 0.834 | 0.765 | 0.7133 | 0.6654 | 0.621 | 0.588 | 0.5465
100 µM, coculture fibroblast: WS1 | 0.8521 | 0.788 | 0.757 | 0.705 | 0.649 | 0.622 | 0.59 | 0.569 | 0.548
